Source: PubChem BioAssay AID198 (DTP/NCI, 2004)
The list does not hold the whole screen: it gathers tests that were run many times, whatever their T/C, doses with no T/C, and many T/C values between a quarter and a half above the control. Further doses and runs are listed elsewhere. T/C is the treated group as % of the vehicle group. Some doses have a count of surviving animals in place of a T/C: the source files T/C as zero there, which appears to mark a toxic dose or a test without result, not a measured value. Some survivor counts are full or nearly so, which does not show that the dose was tolerated: the source hardly ever lists a survival T/C far under the control, and the zero likely stands for such cases as well. Survivors were counted at the toxicity check, usually on the fifth day, unless a day is given; later deaths do not show. Schedule codes are those of the source, taken here to give the interval after Q, in days (D) or hours (H), and the number of doses after X. Some entries were tested several times; their values stand side by side, smallest first. For survival time, the PubChem record calls one and a half times the control and up active, and a quarter to a half above the control has no call in these data; cut-offs in other NCI protocols can differ. Some T/C values carry the count of animals alive at the toxicity check (mostly the fifth day); without a count, all were alive then.

System: B16 melanoma ip, C57BL/6 mice, median survival T/C
Experiment: NCI In Vivo Anticancer Drug Screen. Data for tumor model B16 Melanoma (intraperitoneal) in C57BL/6 mice
Conditions: T/C endpoint: median survival time, higher T/C = longer survival
Method: The antitumor activity of compounds was measured in mice bearing transplantable tumors. Survival or tumor size were measured and the results are expressed as the measurement made in the treated group (T) divided by the measurement made in the vehicle treated control group (C). The tumor model used in this assay is B16 Melanoma (intraperitoneal) in C57BL/6 mice

[1] = dose: 25.0 mg/kg/injection, schedule: Q01DX009 (ip), vehicle: saline
[2] = dose: 100.0 mg/kg/injection, schedule: Q01DX009 (ip), vehicle: saline with Tween-80
[3] = dose: 200.0 mg/kg/injection, schedule: Q01DX009 (ip), vehicle: saline with Tween-80

## C[n+]1c2ccccc2c(Nc2ccc(NS(=O)(=O)CCCCN=C(N)N)cc2)c2ccc(N)cc21
dose: 0.37 mg/kg/injection, schedule: Q01DX009 (ip), vehicle: water
  T/C: 128 % of control
dose: 0.75 mg/kg/injection, schedule: Q01DX009 (ip), vehicle: water
  T/C: 131 % of control
dose: 1.5 mg/kg/injection, schedule: Q01DX009 (ip), vehicle: water
  T/C: 136 % of control
dose: 3.0 mg/kg/injection, schedule: Q01DX009 (ip), vehicle: water
  T/C: 143 % of control
dose: 6.0 mg/kg/injection, schedule: Q01DX009 (ip), vehicle: water
  survivor count: 10 of 10

## CO[C@H](C(=O)[C@@H](O)[C@@H](C)O)[C@@H]1Cc2cc3cc(OC4CC(OC5CC(O)C(O)C(C)O5)C(O)C(C)O4)c(C)c(O)c3c(O)c2C(=O)[C@H]1OC1CC(OC2CC(OC3CC(C)(O)C(O)C(C)O3)C(O)C(C)O2)C(O)C(C)O1 (stereo not given in full)
dose: 0.25 mg/kg/injection, schedule: Q01DX009 (ip), vehicle: saline
  T/C: 133 % of control
dose: 0.5 mg/kg/injection, schedule: Q01DX009 (ip), vehicle: saline
  T/C: 144 % of control
dose: 1.0 mg/kg/injection, schedule: Q01DX009 (ip), vehicle: saline
  survivor count: 6 of 10
dose: 2.0 mg/kg/injection, schedule: Q01DX009 (ip), vehicle: saline
  survivor count: 0 of 10 and 9 of 10

## COc1cc(C[C@H]2c3cc(OC)c(OC)cc3CCN2C)c(Oc2cc3c(cc2OC)-c2c(OC)c(OC)cc4c2[C@H](C3)N(C)CC4)cc1OC
dose: 200.0 mg/kg/injection, schedule: Q01DX009 (ip), vehicle: saline
  survivor count: 10 of 10

## O=C(O)CCCc1ccc(N(CCCl)CCCl)cc1
dose: 6.25 mg/kg/injection, schedule: Q01DX009 (ip), vehicle: saline
  T/C: 131 % of control
dose: 12.5 mg/kg/injection, schedule: Q01DX009 (ip), vehicle: saline
  T/C: 125 % of control
[1]
  T/C: 128 % of control [8 of 10 alive]
  survivor count: 10 of 10

## CC(C)S(=O)(=O)/C(Cl)=C(/Cl)C(Cl)=C(Cl)Cl
[2]
  survivor count: 5 of 6
[3]
  survivor count: 0 of 6

## CC1([N+](=O)[O-])COP(=O)(NC2CCCC2)OC1 (stereo not given)
dose: 400.0 mg/kg/injection, schedule: Q01DX009 (ip), vehicle: saline
  survivor count: 6 of 6

## O=C(O)c1[nH]c(=O)[nH]c(=O)c1F
dose: 20.0 mg/kg/injection, schedule: Q01DX009 (ip), vehicle: saline
  survivor count: 10 of 10

## O=c1[nH]c(=O)n(C2CC(O)C(CO)O2)cc1F (stereo not given)
dose: 40.0 mg/kg/injection, schedule: Q01DX009 (ip), vehicle: saline
  T/C: 132 % of control
dose: 80.0 mg/kg/injection, schedule: Q01DX009 (ip), vehicle: saline
  T/C: 133 % of control

## CN[C@H]1CCc2cc(OC)c(OC)c(OC)c2-c2ccc(OC)c(=O)cc21
dose: 10.0 mg/kg/injection, schedule: Q01DX009 (ip), vehicle: saline
  survivor count: 9 of 10

## Nc1ncnc2c1ccn2C1OC(CO)C(O)C1O (stereo not given)
dose: 2.5 mg/kg/injection, schedule: Q01DX009 (ip), vehicle: saline
  survivor count: 10 of 10

## CC(=O)[C@@]1(O)CC[C@H]2[C@@H]3C[C@H](C)C4=CC(=O)C=C[C@]4(C)[C@@]3(F)[C@@H](O)C[C@@]21C
dose: 50.0 mg/kg/injection, schedule: Q01DX009 (sc), vehicle: steroid suspending solution
  survivor count: 10 of 10
dose: 100.0 mg/kg/injection, schedule: Q01DX009 (sc), vehicle: steroid suspending solution
  survivor count: 10 of 10

## Cn1cc(NC(=O)c2cc(NC(=O)CN=C(N)N)cn2C)cc1C(=O)NCCC(=N)N
[1]
  survivor count: 5 of 10

## O=NN(CCF)C(=O)NC1CCS(=O)(=O)CC1
dose: 1.9 mg/kg/injection, schedule: Q01DX001 (ip), vehicle: saline
  T/C: 134 % of control
dose: 3.75 mg/kg/injection, schedule: Q01DX001 (ip), vehicle: saline
  T/C: 146 % of control
dose: 60.0 mg/kg/injection, schedule: Q01DX001 (ip), vehicle: saline
  survivor count: 4 of 6

## N#CSCc1ccc(Cl)cc1Cl
[2]
  survivor count: 4 of 6
[3]
  survivor count: 2 of 6
